Paper doi:10.1101/2024.02.25.581915
Results are given in words; binding and its absence hold for the method and conditions named. In cells and extracts the contact can be indirect. Some entries that bind do so weakly or less than the wild type.

By UniProt entry, the sequences of proteins in these tests, tags left out.
UniProt Q6P9B9, whole entry: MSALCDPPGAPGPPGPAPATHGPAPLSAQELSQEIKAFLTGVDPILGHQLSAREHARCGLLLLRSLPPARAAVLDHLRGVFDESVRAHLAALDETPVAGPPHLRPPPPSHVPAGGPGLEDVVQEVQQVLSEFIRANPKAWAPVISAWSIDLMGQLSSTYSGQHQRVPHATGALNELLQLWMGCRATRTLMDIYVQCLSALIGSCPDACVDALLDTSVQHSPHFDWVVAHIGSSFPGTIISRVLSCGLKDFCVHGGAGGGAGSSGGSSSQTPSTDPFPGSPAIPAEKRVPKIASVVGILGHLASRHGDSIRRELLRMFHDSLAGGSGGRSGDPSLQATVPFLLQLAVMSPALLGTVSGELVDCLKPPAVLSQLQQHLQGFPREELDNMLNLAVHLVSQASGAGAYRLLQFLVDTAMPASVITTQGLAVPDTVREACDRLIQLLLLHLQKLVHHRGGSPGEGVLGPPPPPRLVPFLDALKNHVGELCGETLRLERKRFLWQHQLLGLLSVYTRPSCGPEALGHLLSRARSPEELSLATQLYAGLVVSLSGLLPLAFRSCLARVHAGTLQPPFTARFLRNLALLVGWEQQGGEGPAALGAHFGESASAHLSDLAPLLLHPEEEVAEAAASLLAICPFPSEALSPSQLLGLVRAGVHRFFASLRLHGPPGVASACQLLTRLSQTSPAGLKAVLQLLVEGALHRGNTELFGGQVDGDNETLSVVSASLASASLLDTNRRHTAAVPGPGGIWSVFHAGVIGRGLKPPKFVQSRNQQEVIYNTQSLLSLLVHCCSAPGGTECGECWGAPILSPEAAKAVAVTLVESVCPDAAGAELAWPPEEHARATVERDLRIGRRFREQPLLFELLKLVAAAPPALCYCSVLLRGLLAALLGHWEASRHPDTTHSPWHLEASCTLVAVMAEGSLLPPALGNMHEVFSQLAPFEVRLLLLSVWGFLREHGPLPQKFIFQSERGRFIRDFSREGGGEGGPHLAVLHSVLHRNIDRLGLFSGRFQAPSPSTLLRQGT
UniProt Q68E01, whole entry: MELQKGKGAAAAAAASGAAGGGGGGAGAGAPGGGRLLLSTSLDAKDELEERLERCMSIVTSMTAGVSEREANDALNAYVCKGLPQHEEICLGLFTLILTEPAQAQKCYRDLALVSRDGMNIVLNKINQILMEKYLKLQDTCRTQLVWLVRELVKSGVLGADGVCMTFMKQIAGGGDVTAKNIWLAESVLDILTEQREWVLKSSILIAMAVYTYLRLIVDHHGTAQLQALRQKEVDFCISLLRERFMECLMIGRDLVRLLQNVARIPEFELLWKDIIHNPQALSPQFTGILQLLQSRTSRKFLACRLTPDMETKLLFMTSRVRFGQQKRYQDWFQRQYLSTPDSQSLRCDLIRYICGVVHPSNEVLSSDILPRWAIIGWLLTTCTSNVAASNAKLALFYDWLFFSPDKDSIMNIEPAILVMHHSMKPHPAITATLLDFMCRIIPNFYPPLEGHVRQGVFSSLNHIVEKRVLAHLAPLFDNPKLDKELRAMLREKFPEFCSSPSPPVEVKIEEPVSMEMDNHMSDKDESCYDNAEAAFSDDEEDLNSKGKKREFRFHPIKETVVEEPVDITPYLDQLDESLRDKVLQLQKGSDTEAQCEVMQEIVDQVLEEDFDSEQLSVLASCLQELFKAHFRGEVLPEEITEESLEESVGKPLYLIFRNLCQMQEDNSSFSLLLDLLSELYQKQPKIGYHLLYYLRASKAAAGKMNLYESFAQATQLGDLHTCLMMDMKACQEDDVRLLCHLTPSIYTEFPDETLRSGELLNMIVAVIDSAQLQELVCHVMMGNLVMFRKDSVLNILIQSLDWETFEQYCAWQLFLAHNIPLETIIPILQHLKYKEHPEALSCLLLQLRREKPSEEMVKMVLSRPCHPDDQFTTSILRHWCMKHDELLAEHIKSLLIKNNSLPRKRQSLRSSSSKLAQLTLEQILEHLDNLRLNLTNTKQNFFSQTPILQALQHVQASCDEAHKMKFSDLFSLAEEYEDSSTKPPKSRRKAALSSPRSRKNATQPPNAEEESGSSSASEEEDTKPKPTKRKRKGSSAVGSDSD
UniProt P60896, whole entry: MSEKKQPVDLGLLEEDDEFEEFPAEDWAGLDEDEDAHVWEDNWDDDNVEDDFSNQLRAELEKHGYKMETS
UniProt O00487, whole entry: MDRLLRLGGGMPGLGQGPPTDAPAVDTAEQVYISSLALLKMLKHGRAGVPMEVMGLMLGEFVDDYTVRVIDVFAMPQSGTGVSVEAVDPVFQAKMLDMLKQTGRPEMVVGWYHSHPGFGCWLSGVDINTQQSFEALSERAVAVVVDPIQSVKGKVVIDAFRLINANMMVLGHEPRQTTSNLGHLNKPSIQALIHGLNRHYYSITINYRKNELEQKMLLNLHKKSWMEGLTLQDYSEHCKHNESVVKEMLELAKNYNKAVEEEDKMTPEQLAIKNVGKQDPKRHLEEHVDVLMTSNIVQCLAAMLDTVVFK
UniProt P55036, whole entry: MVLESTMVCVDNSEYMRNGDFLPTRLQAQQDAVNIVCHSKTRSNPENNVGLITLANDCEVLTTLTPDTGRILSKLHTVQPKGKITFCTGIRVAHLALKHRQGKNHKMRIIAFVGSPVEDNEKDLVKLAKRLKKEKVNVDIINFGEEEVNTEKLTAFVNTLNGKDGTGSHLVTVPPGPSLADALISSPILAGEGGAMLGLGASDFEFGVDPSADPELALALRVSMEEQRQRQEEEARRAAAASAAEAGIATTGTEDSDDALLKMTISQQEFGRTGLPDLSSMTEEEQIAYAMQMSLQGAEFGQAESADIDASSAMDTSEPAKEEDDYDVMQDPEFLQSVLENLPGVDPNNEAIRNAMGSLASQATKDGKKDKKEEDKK

Key:
Assay in all cases: co-IP
[1] = target: INTS5 (endogenous) (human (endogenous in DLD-1)) (UniProt Q6P9B9)
[2] = target: INTS3 (endogenous) (human (endogenous in DLD-1)) (UniProt Q68E01)
[3] = target: HA–GFP-tagged wild-type DSS1 (pLVX-DSS1-WT) (human) (UniProt P60896)

| Substance | binding [1] | binding [2] | binding [3] |
| --- | --- | --- | --- |
| DSS1–Flag–dTAG (endogenous DSS1 locus tagged in DLD-1 cells) (from UniProt P60896 1-70) | binds | binds | – |
| PSMD14 (26S proteasome subunit, endogenous) (from UniProt O00487 1-310) | – | – | binds |
| PSMD4 (26S proteasome subunit, endogenous) (from UniProt P55036 1-377) | – | – | binds |
